Measurements taken from PMC7583046, “The Paralogue of the Intrinsically Disordered Nuclear Protein 1 Has a Nuclear Localization Sequence that Binds to Human Importin α3” (International Journal of Molecular Sciences, 2020).
No constants are given. Whether binding was seen depends on the method and setting. Some entries that bind do so weakly or less than the wild type.

Key:
[1] = biological target: NLS-NUPR1L, peptide of the nuclear localization sequence of NUPR1L (residues 51-74); assay: translational diffusion NMR (DOSY); peptide at 120 μM in 100% D2O, 283 K, pH 7.2, 50 mM deuterated Tris; Rh by comparison with dioxane; both purified
[2] = biological target: T1, human importin α3 (Impα3), intact (human, UniProt O00629 1-521); assay: steady-state fluorescence spectra (complex against the sum of the spectra); 50 mM phosphate buffer, pH 7.0, 298 K; excitation at 280 or 295 nm; NUPR1L 15 μM (protomer units) with importin 5 μM; NLS-NUPR1L 10 μM with importin 4 μM; both purified
T1 construct: Human importin α3 (KPNA4), intact protein with the IBB domain, residues 1-521; Purification as for ∆Impα3; also called KPNA4; source: E. coli BL21 (DE3), purified (codon-optimized DNA synthesized by NZYtech, in the pHTP1 vector)
T1 sequence (looked up): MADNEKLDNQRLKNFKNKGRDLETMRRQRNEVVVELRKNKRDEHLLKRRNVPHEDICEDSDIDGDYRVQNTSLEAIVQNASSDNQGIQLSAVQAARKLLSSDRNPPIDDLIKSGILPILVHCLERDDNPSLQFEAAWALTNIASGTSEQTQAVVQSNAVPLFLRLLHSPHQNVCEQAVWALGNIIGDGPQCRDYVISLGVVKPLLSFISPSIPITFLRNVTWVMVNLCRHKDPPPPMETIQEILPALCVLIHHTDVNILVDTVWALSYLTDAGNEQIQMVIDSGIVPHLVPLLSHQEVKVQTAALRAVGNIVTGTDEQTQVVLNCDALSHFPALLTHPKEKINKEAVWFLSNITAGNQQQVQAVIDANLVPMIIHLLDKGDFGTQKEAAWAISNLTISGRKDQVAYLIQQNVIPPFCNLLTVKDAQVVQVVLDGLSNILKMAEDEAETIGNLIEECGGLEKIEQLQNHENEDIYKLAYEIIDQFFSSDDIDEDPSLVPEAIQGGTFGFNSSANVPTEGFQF

[3] = biological target: T1, human importin α3 (Impα3), intact; assay: far-UV CD spectra (complex against the sum of the spectra); 50 mM phosphate buffer, pH 7.0, 298 K; concentrations as in the fluorescence spectra; both purified

binding [1]: no binding (tested: 120 μM)
binding [2]: binds
binding [3]: binds
Binder: RTRREQALRTNWPAPGGHERKVAQ (acetylation at the N terminus; amidation at the C terminus) [NLS-NUPR1L, peptide of the nuclear localization sequence of NUPR1L (residues 51-74)]
